From article PMC10983073 come the findings set out here.

Sequences of proteins named here, by UniProt entry; tags and fusion partners are left off. Residues count along the entry.
UniProt Q969D9, residues 29-159: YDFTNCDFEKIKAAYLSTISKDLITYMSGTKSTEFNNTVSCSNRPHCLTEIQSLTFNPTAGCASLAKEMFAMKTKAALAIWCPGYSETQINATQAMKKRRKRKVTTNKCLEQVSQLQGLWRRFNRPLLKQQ

The test concerns the target TSLP-hFc fusion protein (human) (UniProt Q969D9). The test can be described thus: ELISA; blocking assay: plates coated with 1.5 μg/ml TSLP-hFc in PBS 16 hr at 4 °C; 1 μg/ml TSLPR-mFc added without or with increasing concentrations of antibody, room temperature, 2 hr; both purified.

Results are given in words; binding and its absence hold for the method and conditions named. Some results given as binding are weak or reduced against the parent protein; the word gives no strength.

B1: TSLPR-mFc protein (Fc fusion, UniProt Q9HC73 23-231)
chain: QGGAAEGVQIQIIYFNLETVQVTWNASKYSRTNLTFHYRFNGDEAYDQCTNYLLQEGHTSGCLLDAEQRDDILYFSIRNGTHPVFTASRWMVYYLKPSSPKHVRFSWHQDAVTVTCSDLSYGDLLYEVQYRSPFDTEWQSKQENTCNVTIEGLDAEKCYSFWVRVKAMEDVYGPDTYPSDWSEVTCWQRGEIRDACAETPTPPKPKLSK
With B1, the binding result is reported as “binds”.
